Measured values reported in the supplement of paper PMC10849652.
Some of the results follow.

Chains of the proteins cited; added tags and fusions are not shown. Lines headed by an entry give the natural chain unless they say otherwise; changes in a name come on top.
UniProt Q14376: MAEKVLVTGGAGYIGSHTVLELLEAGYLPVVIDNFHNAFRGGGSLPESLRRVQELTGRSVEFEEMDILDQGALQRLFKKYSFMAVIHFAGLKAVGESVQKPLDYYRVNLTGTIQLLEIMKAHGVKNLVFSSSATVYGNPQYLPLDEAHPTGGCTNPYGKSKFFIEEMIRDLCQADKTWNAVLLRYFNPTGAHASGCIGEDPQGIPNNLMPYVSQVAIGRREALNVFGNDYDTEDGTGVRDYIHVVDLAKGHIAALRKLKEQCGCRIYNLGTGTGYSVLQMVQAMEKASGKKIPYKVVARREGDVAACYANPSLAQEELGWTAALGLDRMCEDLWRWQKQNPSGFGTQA
UniProt P54803: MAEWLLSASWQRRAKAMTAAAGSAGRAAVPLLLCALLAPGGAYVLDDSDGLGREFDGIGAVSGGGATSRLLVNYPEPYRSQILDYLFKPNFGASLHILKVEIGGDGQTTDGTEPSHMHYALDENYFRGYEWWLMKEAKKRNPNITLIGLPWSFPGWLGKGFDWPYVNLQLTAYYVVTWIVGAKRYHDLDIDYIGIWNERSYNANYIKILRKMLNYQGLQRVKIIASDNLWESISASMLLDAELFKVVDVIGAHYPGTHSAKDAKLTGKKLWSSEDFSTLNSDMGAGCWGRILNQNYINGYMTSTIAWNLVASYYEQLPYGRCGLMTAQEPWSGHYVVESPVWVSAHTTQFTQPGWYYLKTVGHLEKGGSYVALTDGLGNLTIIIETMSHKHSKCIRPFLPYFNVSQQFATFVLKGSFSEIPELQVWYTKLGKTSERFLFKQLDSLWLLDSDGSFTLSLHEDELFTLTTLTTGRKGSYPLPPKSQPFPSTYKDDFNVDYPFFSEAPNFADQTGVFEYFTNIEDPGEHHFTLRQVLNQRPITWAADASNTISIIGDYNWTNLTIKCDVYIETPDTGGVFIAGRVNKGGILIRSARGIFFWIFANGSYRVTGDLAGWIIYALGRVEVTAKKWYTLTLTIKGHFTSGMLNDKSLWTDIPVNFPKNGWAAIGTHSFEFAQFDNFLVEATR
UniProt O75600: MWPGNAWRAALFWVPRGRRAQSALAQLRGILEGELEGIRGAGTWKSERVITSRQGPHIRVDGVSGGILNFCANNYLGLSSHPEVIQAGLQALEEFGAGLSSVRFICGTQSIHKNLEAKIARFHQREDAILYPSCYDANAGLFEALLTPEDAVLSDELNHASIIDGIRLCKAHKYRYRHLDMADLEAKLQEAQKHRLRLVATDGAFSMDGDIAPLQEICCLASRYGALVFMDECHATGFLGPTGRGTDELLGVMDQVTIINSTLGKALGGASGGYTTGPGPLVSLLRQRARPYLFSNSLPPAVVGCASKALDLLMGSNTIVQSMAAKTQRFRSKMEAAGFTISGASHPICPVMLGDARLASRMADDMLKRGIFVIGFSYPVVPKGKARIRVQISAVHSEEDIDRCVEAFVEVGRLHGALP
UniProt P04062: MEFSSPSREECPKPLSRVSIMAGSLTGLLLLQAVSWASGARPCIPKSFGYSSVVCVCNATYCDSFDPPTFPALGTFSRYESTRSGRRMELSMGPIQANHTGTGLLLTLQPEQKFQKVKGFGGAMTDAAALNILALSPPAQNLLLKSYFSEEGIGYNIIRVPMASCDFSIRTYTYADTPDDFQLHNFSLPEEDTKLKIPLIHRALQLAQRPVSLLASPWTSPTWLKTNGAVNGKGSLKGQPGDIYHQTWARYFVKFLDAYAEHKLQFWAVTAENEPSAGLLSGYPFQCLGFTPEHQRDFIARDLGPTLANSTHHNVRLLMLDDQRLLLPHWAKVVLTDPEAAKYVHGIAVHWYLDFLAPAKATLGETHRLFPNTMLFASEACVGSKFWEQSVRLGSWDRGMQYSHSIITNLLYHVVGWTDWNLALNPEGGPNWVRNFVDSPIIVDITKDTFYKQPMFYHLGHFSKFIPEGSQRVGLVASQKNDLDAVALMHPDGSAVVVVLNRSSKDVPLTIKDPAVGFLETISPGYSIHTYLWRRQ
UniProt Q9H3C7, whole entry, looked up: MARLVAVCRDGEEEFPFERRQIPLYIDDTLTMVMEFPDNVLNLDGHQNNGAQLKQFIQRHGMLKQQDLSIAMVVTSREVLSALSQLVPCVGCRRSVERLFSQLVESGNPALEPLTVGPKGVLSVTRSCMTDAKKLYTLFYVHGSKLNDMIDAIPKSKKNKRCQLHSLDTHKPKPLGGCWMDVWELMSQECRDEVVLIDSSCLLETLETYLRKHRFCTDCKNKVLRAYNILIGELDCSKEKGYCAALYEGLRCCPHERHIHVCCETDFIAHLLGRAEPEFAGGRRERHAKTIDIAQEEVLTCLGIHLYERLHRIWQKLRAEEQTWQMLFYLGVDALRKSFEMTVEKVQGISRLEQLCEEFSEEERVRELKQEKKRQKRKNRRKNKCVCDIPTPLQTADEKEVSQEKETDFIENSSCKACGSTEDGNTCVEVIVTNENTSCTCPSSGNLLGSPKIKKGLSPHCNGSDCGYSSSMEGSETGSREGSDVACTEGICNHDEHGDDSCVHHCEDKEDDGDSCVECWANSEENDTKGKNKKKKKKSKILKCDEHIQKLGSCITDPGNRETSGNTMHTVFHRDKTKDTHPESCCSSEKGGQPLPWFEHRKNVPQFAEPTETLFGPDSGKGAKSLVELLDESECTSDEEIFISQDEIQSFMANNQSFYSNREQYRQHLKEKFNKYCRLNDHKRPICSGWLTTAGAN
UniProt P34059: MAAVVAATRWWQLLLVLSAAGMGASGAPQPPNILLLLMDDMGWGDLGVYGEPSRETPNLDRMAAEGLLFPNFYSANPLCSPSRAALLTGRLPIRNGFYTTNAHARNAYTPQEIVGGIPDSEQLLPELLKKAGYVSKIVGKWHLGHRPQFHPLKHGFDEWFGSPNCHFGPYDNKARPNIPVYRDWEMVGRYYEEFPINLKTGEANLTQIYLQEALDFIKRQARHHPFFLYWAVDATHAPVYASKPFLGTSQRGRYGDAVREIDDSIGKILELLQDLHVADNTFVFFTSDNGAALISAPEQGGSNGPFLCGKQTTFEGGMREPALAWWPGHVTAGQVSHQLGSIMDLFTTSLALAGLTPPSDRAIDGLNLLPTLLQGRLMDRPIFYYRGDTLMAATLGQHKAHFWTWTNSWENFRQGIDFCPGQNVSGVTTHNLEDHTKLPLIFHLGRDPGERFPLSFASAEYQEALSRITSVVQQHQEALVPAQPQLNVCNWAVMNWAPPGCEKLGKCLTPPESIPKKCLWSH
UniProt Q86YP4: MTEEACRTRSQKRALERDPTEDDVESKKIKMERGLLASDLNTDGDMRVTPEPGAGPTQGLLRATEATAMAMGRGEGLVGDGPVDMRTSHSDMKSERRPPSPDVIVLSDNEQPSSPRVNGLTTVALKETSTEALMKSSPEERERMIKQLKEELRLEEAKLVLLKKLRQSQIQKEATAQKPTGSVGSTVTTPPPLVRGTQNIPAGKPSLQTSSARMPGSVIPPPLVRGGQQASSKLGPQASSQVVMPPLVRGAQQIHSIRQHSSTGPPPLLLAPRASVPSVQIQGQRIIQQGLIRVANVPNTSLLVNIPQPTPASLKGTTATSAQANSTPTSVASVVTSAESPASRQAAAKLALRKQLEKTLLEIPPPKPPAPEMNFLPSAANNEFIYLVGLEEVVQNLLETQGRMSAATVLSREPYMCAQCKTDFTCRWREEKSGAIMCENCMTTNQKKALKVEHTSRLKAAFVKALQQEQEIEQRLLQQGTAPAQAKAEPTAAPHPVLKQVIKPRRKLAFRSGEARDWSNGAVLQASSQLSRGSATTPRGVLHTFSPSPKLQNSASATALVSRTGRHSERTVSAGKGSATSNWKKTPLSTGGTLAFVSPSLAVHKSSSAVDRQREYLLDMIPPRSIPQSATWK
UniProt Q9H0R8, whole entry, looked up: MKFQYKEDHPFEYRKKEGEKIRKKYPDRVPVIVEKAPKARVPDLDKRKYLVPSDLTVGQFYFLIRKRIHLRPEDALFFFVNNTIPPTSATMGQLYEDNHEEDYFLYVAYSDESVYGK
UniProt Q8TB36: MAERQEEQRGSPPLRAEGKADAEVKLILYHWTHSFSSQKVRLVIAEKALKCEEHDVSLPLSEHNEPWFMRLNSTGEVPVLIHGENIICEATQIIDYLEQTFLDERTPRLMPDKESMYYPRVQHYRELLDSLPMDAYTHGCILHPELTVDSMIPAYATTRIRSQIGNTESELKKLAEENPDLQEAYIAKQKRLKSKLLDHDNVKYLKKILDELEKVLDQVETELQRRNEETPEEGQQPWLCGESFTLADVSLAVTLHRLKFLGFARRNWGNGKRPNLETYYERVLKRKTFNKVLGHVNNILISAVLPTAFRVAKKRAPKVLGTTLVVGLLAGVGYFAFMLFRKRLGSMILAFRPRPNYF
UniProt Q9BTY2: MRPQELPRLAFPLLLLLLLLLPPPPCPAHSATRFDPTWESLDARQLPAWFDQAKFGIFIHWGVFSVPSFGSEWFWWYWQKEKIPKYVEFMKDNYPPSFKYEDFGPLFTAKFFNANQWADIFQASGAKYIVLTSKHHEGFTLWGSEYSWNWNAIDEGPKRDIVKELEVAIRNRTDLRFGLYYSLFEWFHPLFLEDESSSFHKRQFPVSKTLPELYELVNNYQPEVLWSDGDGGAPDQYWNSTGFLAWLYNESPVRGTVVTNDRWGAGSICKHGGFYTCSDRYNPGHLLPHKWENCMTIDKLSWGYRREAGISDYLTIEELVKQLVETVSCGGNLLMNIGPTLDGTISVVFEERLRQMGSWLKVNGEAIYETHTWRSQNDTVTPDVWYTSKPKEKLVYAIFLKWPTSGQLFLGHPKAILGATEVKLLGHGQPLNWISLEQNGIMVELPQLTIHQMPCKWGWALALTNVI
UniProt Q96I24: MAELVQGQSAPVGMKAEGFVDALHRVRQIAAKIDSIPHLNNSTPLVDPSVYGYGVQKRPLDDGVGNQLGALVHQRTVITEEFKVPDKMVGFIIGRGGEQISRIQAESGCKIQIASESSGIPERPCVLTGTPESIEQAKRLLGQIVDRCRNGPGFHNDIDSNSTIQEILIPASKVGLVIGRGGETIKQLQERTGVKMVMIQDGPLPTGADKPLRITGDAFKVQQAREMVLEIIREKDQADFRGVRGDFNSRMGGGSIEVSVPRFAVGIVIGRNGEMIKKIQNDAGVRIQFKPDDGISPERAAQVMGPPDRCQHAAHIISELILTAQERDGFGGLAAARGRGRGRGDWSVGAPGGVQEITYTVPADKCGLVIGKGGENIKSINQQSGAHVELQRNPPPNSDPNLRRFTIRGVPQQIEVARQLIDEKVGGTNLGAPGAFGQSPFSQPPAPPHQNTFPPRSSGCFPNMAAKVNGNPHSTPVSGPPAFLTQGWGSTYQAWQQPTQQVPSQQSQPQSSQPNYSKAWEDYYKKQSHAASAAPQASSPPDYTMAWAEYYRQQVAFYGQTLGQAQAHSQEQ
UniProt Q96AE4: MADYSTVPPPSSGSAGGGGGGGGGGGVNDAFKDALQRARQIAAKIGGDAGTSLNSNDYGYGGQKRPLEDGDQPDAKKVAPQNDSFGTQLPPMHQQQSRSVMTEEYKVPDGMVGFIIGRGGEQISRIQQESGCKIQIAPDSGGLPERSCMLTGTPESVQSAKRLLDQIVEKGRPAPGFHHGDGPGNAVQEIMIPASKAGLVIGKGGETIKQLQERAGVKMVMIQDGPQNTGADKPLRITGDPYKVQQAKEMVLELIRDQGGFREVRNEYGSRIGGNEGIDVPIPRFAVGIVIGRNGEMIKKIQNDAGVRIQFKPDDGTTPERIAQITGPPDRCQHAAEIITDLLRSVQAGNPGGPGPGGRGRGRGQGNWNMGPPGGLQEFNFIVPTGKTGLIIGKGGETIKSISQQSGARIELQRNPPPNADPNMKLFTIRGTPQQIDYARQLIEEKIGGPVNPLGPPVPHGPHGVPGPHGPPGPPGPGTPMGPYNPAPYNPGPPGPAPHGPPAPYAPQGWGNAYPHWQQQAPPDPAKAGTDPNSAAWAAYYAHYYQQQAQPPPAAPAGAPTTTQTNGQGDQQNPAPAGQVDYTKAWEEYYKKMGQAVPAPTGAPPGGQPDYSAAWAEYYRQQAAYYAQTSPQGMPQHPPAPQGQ
UniProt Q9UET6: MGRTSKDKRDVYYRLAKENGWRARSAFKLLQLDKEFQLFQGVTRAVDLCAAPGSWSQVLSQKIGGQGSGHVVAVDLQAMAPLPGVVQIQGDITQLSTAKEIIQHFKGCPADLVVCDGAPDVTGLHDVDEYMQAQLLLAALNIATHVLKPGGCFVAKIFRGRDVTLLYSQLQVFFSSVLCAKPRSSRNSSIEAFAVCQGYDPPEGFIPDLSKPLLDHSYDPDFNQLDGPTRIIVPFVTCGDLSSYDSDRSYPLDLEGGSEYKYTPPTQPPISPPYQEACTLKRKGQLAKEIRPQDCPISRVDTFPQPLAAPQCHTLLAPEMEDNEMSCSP
UniProt Q8NB37: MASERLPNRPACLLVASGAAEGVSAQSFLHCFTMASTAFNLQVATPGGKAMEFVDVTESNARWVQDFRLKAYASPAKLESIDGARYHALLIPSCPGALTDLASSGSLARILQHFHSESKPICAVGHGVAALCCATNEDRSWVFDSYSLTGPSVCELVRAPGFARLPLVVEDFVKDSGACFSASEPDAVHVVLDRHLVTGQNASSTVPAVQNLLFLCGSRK

The targets below were run with COc1cc2ncnc(Nc3ccc(F)c(Cl)c3)c2cc1OCCCN1CCOCC1 [gefitinib] (assay: log2 fold change, soluble protein after heating vs DMSO (PISA); higher = thermal stabilisation; K562 cells, 10 uM, 30 min; active = over 0.2 and 3.5 SD of the protein, either way, in both replicates (recomputed)).
Method in brief: (§1)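 Aliquots of K562 cells (2×10^6 cells/mL) treated with 10 μM compound for 30 min were heated for 3 min over 48°C-58°C. After pooling and extraction in PBS with 0.5% NP-40 at 4°C, soluble protein from a 21,000xg, 90 min spin was quantified by TMTpro 16plex LC-MS/MS with channel sums equalised. Thermal stability is expressed against control samples, from duplicates, as a log2 fold change.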

log2 fold change, inactive:
GALE (UniProt Q14376) 0.05
GALC (UniProt P54803) -0.014
GCAT isoform 2 (UniProt O75600) 0.068
GBA (UniProt P04062) -0.014
GATA1 (UniProt P15976) 0.014
GGNBP2 (UniProt Q9H3C7) 0.108
GALNS (UniProt P34059) 0.019
GHITM (UniProt Q9H3K2) -0.006
GATAD2A isoform 3 (UniProt Q86YP4) 0
GAK (UniProt O14976) 0.84
FSCN1 (UniProt Q16658) 0.021
GADD45GIP1 (UniProt Q8TAE8) -0.005
GART (UniProt C9JZG2) 0.143
GCN1 (UniProt Q92616) -0.023
GABARAPL1 isoform 2 (UniProt Q9H0R8) 0.021
FRG1 (UniProt Q14331) 0.012
GDAP1 (UniProt Q8TB36) 0.01
GCLC (UniProt P48506) -0.001
G3BP2 (UniProt Q9UN86) -0.033
GFPT1 (UniProt Q06210) -0.005
FUT11 (UniProt Q495W5) -0.082
FXR2 (UniProt P51116) -0.02
FUCA2 (UniProt Q9BTY2) -0.013
FUBP3 (UniProt Q96I24) -0.049
GART (UniProt P22102) 0.145
FUBP1 isoform 2 (UniProt Q96AE4) 0.007
FTSJ1 (UniProt Q9UET6) 0.03
GANAB isoform 2 (UniProt Q14697) -0.017
GATD1 (UniProt Q8NB37) -0.014
GEMIN6 (UniProt Q8WXD5) -0.003
GGPS1 (UniProt O95749) 0.016
GABPA (UniProt Q06546) 0.032
FRRS1 (UniProt Q6ZNA5) -0.027

What follows are targets tested with COc1cccc2cc(-c3nc([C@H]4CC[C@H](C(=O)O)CC4)n4ncnc(N)c34)[nH]c12 in the same assay as above.
Method in brief: as §1

log2 fold change, inactive:
GALE (UniProt Q14376) 0.021
GALC (UniProt P54803) 0.066
GCAT isoform 2 (UniProt O75600) 0.009
GBA (UniProt P04062) -0.005
GATA1 (UniProt P15976) -0.087
GGNBP2 (UniProt Q9H3C7) 0.193
GALNS (UniProt P34059) 0.043
GHITM (UniProt Q9H3K2) 0.064
GATAD2A isoform 3 (UniProt Q86YP4) -0.06
GAK (UniProt O14976) -0.107
FSCN1 (UniProt Q16658) -0.001
GADD45GIP1 (UniProt Q8TAE8) -0.011
GART (UniProt C9JZG2) -0.087
GCN1 (UniProt Q92616) -0.408
GABARAPL1 isoform 2 (UniProt Q9H0R8) -0.01
FRG1 (UniProt Q14331) -0.017
GDAP1 (UniProt Q8TB36) 0.05
GCLC (UniProt P48506) 0.027
G3BP2 (UniProt Q9UN86) -0.131
GFPT1 (UniProt Q06210) 0.042
FUT11 (UniProt Q495W5) -0.052
FXR2 (UniProt P51116) -0.179
FUCA2 (UniProt Q9BTY2) 0.045
FUBP3 (UniProt Q96I24) 0.009
GART (UniProt P22102) -0.021
FUBP1 isoform 2 (UniProt Q96AE4) 0.045
FTSJ1 (UniProt Q9UET6) 0.038
GANAB isoform 2 (UniProt Q14697) -0.079
GATD1 (UniProt Q8NB37) 0.052
GEMIN6 (UniProt Q8WXD5) 0.096
GGPS1 (UniProt O95749) 0.088
GABPA (UniProt Q06546) 0.029
FRRS1 (UniProt Q6ZNA5) -0.016

The targets below were run with CS(=O)(=O)CCNCc1ccc(-c2ccc3ncnc(Nc4ccc(OCc5cccc(F)c5)c(Cl)c4)c3c2)o1 [lapatinib] in the same assay as above.
Method in brief: as §1

log2 fold change, inactive:
GALE (UniProt Q14376) 0.007
GALC (UniProt P54803) 0.042
GCAT isoform 2 (UniProt O75600) -0.02
GBA (UniProt P04062) 0.013
GATA1 (UniProt P15976) 0.008
GGNBP2 (UniProt Q9H3C7) 0.034
GALNS (UniProt P34059) 0.006
GHITM (UniProt Q9H3K2) -0.007
GATAD2A isoform 3 (UniProt Q86YP4) -0.032
GAK (UniProt O14976) 0.143
FSCN1 (UniProt Q16658) -0.014
GADD45GIP1 (UniProt Q8TAE8) 0.089
GART (UniProt C9JZG2) -0.098
GCN1 (UniProt Q92616) 0.061
GABARAPL1 isoform 2 (UniProt Q9H0R8) -0.026
FRG1 (UniProt Q14331) 0.039
GDAP1 (UniProt Q8TB36) -0.026
GCLC (UniProt P48506) -0.018
G3BP2 (UniProt Q9UN86) 0.12
GFPT1 (UniProt Q06210) 0.026
FUT11 (UniProt Q495W5) 0.245
FXR2 (UniProt P51116) -0.01
FUCA2 (UniProt Q9BTY2) 0.025
FUBP3 (UniProt Q96I24) 0.006
GART (UniProt P22102) -0.008
FUBP1 isoform 2 (UniProt Q96AE4) -0.018
FTSJ1 (UniProt Q9UET6) 0.007
GANAB isoform 2 (UniProt Q14697) 0.039
GATD1 (UniProt Q8NB37) -0.064
GEMIN6 (UniProt Q8WXD5) -0.077
GGPS1 (UniProt O95749) -0.02
GABPA (UniProt Q06546) 0.048
FRRS1 (UniProt Q6ZNA5) 0.015
